Assay results as given in patent US12274683B2 (Bayer HealthCare LLC, priority 2019, dated 2025).

System: inflammation/edema induced by carrageenan-injection into the footpads of Sprague Dawley (SD) rats
Test: Carrageenan-induced inflammation rat paw test (Example 3)
Details: topical 100 μL/rat 3 h (oral 1 h) before carrageenan, 2-24 h post-injection, N=10, SE in line below

COc1ccc2cc([C@H](C)C(=O)O)ccc2c1 [Naproxen (oral), Naproxen]
Ankle Diameter Difference (R − L) AUC: ‡1.792
Von Frey Absolute Threshold (g) AUC (Right Paw): ‡155.1 g
Von Frey Absolute Threshold (g) AUC (Right Paw) (listed as oral Naproxen): increased significantly
